In doi:10.1101/215962:
Results are given in words; binding and its absence hold for the method and conditions named. Binding seen in cells or lysates may run through a third protein. Some results given as binding are weak or reduced against the parent protein; the word gives no strength.

Protein sequences, listed by entry. Tags and fused reporters are not part of them. Lines headed by an entry give the natural chain unless they say otherwise; changes in a name come on top.
UniProt Q9Y812: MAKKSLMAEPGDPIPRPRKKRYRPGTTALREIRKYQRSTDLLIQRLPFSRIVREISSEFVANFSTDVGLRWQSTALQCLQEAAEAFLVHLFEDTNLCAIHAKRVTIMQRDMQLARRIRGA
UniProt P48003: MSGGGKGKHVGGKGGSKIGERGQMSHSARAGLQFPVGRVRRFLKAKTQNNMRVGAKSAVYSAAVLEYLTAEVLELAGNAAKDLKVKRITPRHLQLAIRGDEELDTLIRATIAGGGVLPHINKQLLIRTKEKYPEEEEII

Biological target: GFP-CENP-A^Cnp1 (S. pombe) (UniProt Q9Y812)
Experiment: co-IP

binding: binds
Substance: H2A.Z^Pht1-myc (from UniProt P48003 1-139)
